According to the supplement of paper PMC8616043:
Counter-ions that a name gives are not always drawn. Some of the results follow. This data set is noisy: repeats of one test often differ as much as different tests do.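 PR50, a 50-repeat proline–arginine dipeptide protein from C9ORF72 (ALS/FTD), was expressed by transfection in U-2 OS human cells stably carrying a GFP sensor with import and classical export signals. Per-well nuclear-minus-cytoplasm GFP, normalized between in-plate DMSO (low) and PR-only (high), was scored versus other test wells; compounds well below zero were hits reversing PR.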

Each compound was assayed on U-2 OS NCT-C biosensor cells expressing PR50 (assay: Z-score of normalised NCT-C biosensor translocation index in PR50-expressing cells; higher = more nuclear biosensor (more disrupted nuclear export)). Details: 3 µM; 24 h.

Row | Structure (SMILES) | Z-score
1 | COc1cc(C(O)CN)ccc1O (racemic) [(±)-Normetanephrine hydrochloride] | inactive: -0.611
2 | CCC1=C[C@H]2CN3CCc4c([nH]c5ccccc45)[C@](C(=O)OC)(C2)[C@H]13 [Catharanthine] | inactive: -0.516
3 | C#CCOC(=O)C1=CCCN(C)C1 [Arecaidine propargyl ester hydrobromide] | inactive: 0.562
4 | C[C@H]1CC[C@@H]2N(C1)C[C@H]1[C@@H]3C[C@H]4[C@@H](CC(=O)[C@H]5C[C@@H](O)CC[C@@]54C)[C@@H]3CC[C@H]1[C@]2(C)O [Imperialine] | inactive: -0.0369
5 | C[C@@H]1CC[C@H]2[C@H](C)[C@H]3CC[C@@]4(O)[C@@H]5CC(=O)[C@H]6CC(=O)CC[C@]6(C)[C@H]5C[C@H]4[C@@H]3CN2C1 [Sevedindione] | inactive: -0.276
6 | NCC(CP(=O)(O)O)c1ccc(Cl)cc1 (stereo unspecified) [Phaclofen] | inactive: -1.09
7 | c1ccc(C2CC2)c(OCC2=NCCN2)c1 [Cirazoline hydrochloride] | inactive: -0.46
8 | CN1[C@@H]2CC[C@H]1C[C@@H](OC(c1ccccc1)c1ccccc1N)C2 (stereo partly specified) [Aminobenztropine] | inactive: 0.0799
9 | CN1[C@H]2C[C@H](OC(=O)[C@H](CO)c3ccccc3)C[C@@H]1[C@@H](O)C2 [Anisodamine] | inactive: -0.382
10 | CN(C)C(=O)Oc1cccc([N+](C)(C)C)c1 [Neostigmine bromide] | inactive: -1.04
11 | CNC(=O)Oc1ccc2c(c1)[C@]1(C)CCN(C)[C@@H]1N2C [(-)-Physostigmine] | inactive: 0.273
12 | CNC(=O)Oc1ccc2c(c1)[C@]1(C)CCN(C)[C@@H]1N2C [Physostigmine] | inactive: 0.151
13 | COc1ccc(C(CN(C)C)C2(O)CCCCC2)cc1 (stereo unspecified) [Venlafaxine·HCl] | inactive: 0.167
14 | COc1ccc(C(CN(C)C)C2(O)CCCCC2)cc1 (stereo unspecified) [Venlafaxine hydrochloride] | inactive: -0.324
15 | CCc1c(C(=O)C(N)=O)c2c(OCC(=O)O)cccc2n1Cc1ccccc1 [Varespladib] | inactive: 0.478
16 | CC(N)c1cccc(Cl)c1Cl (racemic) [(±)-2,3-Dichloro- alpha- methylbenzylamine hydrochloride] | inactive: 0.391
17 | COC[C@@H](NC(C)=O)C(=O)NCc1ccccc1 [Lacosamide] | inactive: -0.408
18 | O=C1C=CC(=O)C=C1 [p-Benzoquinone] | inactive: 0.661
19 | COc1ccc2c(c1OC)C(=O)OC2C1c2cc3c(cc2CCN1C)OCO3 (single isomer, unassigned; (+)) [(+)-Hydrastine] | inactive: 0.0287
20 | C=C1C[C@@H]2[C@H](CC[C@]3(C)C(=O)CC[C@@H]23)[C@@]2(C)C=CC(=O)C=C12 [Exemestane] | inactive: -0.26
21 | c1ccc(C[N+]23CN4CN(CN(C4)C2)C3)cc1 [Roslin 2] | inactive: -0.0101
22 | CC(=O)c1c(O)c(C)c(O)c(Cc2c(O)c3c(c(C(=O)/C=C/c4ccccc4)c2O)OC(C)(C)C=C3)c1O [Rottlerin] | inactive: -0.903

In another format: entries from further up.
Row	Structure (SMILES)	Z-score
4	C[C@H]1CC[C@@H]2N(C1)C[C@H]1[C@@H]3C[C@H]4[C@@H](CC(=O)[C@H]5C[C@@H](O)CC[C@@]54C)[C@@H]3CC[C@H]1[C@]2(C)O [Imperialine]	inactive: -0.0369
5	C[C@@H]1CC[C@H]2[C@H](C)[C@H]3CC[C@@]4(O)[C@@H]5CC(=O)[C@H]6CC(=O)CC[C@]6(C)[C@H]5C[C@H]4[C@@H]3CN2C1 [Sevedindione]	inactive: -0.276
6	NCC(CP(=O)(O)O)c1ccc(Cl)cc1 (stereo unspecified) [Phaclofen]	inactive: -1.09
7	c1ccc(C2CC2)c(OCC2=NCCN2)c1 [Cirazoline hydrochloride]	inactive: -0.46
8	CN1[C@@H]2CC[C@H]1C[C@@H](OC(c1ccccc1)c1ccccc1N)C2 (stereo partly specified) [Aminobenztropine]	inactive: 0.0799
9	CN1[C@H]2C[C@H](OC(=O)[C@H](CO)c3ccccc3)C[C@@H]1[C@@H](O)C2 [Anisodamine]	inactive: -0.382

Additional results follow.

Row | Structure (SMILES) | Z-score
23 | C=C1[C@@H](C)[C@H]2[C@H](Cc3ccccc3)NC(=O)[C@]23[C@H](OC(C)=O)/C=C/[C@@](C)(O)C(=O)[C@@H](C)C/C=C/[C@H]3[C@@H]1O [Cytochalasin D] | inactive: -0.504
24 | COc1ccccc1N1CCNCC1 [1-(2-  Methoxyphenyl) piperazine HCl] | inactive: 0.404
25 | CC1=NN=C(c2ccc(N)cc2)c2cc3c(cc2C1)OCO3 | inactive: -0.539
26 | COc1cc2c(cc1OC)C13CC[N+]4([O-])CC5=CCOC6CC(=O)N2C1C6C5CC34 (stereo unspecified) [Brucine-N-oxide] | inactive: 0.103
27 | CCCCCCC(=O)CCCCCC/C=C/C[C@@H](O)[C@H](O)[C@@](N)(CO)C(=O)O [Myriocin] | inactive: 0.271
28 | C[C@@H]1O[C@@H](O[C@H]2C[C@@H](O)[C@]3(CO)[C@H]4[C@H](O)C[C@]5(C)[C@@H]([C@@H]6COC(=O)C6)CC[C@]5(O)[C@@H]4CC[C@]3(O)C2)[C@H](O)[C@H](O)[C@H]1O [Dihydroouabain] | inactive: -0.000584
29 | c1ccc2c3c([nH]c2c1)CNCC3 [Noreleagnine] | inactive: -0.126
30 | O=C(O)Cc1cnc[nH]1 [Imidazole-4-acetic acid hydrochloride] | inactive: 0.153
31 | O=C(O)[C@@H]1CCN1 [L-azetidine-2- carboxylic acid] | inactive: 0.458
32 | C[C@](N)(CCP(=O)(O)O)C(=O)O | inactive: -0.981
33 | CC(=O)OCC1=C(C(=O)[O-])N2C(=O)[C@@H](NC(=O)CCC[C@@H](N)C(=O)[O-])[C@H]2SC1.[Zn+2] [Cephalosporin C zinc salt] | inactive: -0.0844
34 | CO[C@@H]1C=C2CCN(C)[C@@H]2C2c3cc4c(cc3C(=O)OC21)OCO4 (stereo partly specified) [Ungerine nitrate] | inactive: 1.22
35 | CN1C(=O)CCS(=O)(=O)C1c1ccc(Cl)cc1 (stereo unspecified) [Chlormezanone] | inactive: 0.0754
36 | O=P1(N(CCCl)CCCl)NCCCO1 (stereo unspecified) [Cyclo phosphamide monohydrate] | inactive: 3.95
37 | O=P1(N(CCCl)CCCl)NCCCO1 (stereo unspecified) [Cyclophosphamide monohydrate] | inactive: 0.396
38 | CCCC[N+]1(C)[C@@H]2C[C@@H](OC(=O)[C@H](CO)c3ccccc3)C[C@H]1[C@@H]1O[C@@H]12 (single isomer, unassigned; (-)) [(-)-Scopolamine,n-Butyl-, bromide] | inactive: -1.13
39 | c1ccc2sc(C3(N4CCCCC4)CCCCC3)cc2c1 [BTCP  hydrochloride] | inactive: 4.71
40 | C[C@H]1CC[C@@H]2[C@@H](C)[C@H]3[C@H](C[C@H]4[C@@H]5CC=C6C[C@@H](O[C@@H]7O[C@H](CO)[C@H](O)[C@H](O[C@@H]8O[C@H](CO)[C@@H](O)[C@H](O)[C@H]8O)[C@H]7O[C@H]7O[C@@H](C)[C@H](O)[C@@H](O)[C@H]7O)CC[C@]6(C)[C@H]5CC[C@]34C)N2C1 [α-Solanine] | inactive: -0.36
41 | COc1cc2c(cc1O)C[C@H]1c3c(cc(O)c(OC)c3-2)CCN1C [Boldine] | inactive: -0.329
42 | Cc1sc2c(c1C)C(c1ccc(Cl)cc1)=N[C@@H](CC(=O)OC(C)(C)C)c1nnc(C)n1-2 | inactive: 0.971
43 | CN1C2CC(=O)CC1C(O)C2 (stereo unspecified) [6-Hydroxytropinone] | inactive: -0.0792
44 | C[C@@H]1CC[C@]2(NC1)O[C@H]1C[C@H]3[C@@H]4CC=C5C[C@@H](O)CC[C@]5(C)[C@H]4CC[C@]3(C)[C@H]1[C@@H]2C [Solasodine] | inactive: -0.709

Row | Structure (SMILES) | Z-score
45 | COc1ccc(OC)c(C(O)C(C)N)c1 (stereo unspecified) [Methoxamine hydrochloride] | inactive: -0.79
46 | C[C@@]12C(=O)OC(=O)[C@]1(C)[C@H]1CC[C@@H]2O1 [Cantharidin] | inactive: 0.182
47 | Cl[C@H]1[C@H](Cl)[C@@H](Cl)[C@@H](Cl)[C@H](Cl)[C@H]1Cl [Lindane] | inactive: 0.101
48 | Cc1ccc2c(c1)C1(CCN(CCc3nc(-c4ccccc4)oc3C)CC1)OC(=O)N2 | inactive: 0.033
49 | NC(CP(=O)(O)O)C(=O)O (racemic) [(±)-2-Amino-3-  phosphono propionic acid] | inactive: 0.0518
50 | NC1CCc2cc(O)c(O)cc2C1 (stereo unspecified) [6,7-ADTN  hydrobromide] | inactive: -0.228
51 | N[C@@H]1C[C@H]1c1ccccc1.N[C@H]1C[C@@H]1c1ccccc1 [Tranylcypromine hemisulfate] | active: -2.2
52 | N[C@@H]1C[C@H]1c1ccccc1.N[C@H]1C[C@@H]1c1ccccc1 [Tranylcypromine Hemisulfate] | inactive: 0.032
53 | OCC1C(O)C(O)C2C(O)CCN12 (stereo unspecified) [Australine·HCl] | inactive: -0.637
54 | CN1C2CCC1CC(O)C2 (stereo unspecified) [Tropine] | inactive: -0.596
55 | C[N+]1(C)CCCC(OC(=O)C(O)(c2ccccc2)c2ccccc2)C1 (stereo unspecified) [Mepenzolate Bromide] | inactive: -0.928
56 | NCC1(CC(=O)O)CCCCC1 [Gabapentin] | inactive: -0.941
57 | NCC1(CC(=O)O)CCCCC1 [GABApentin] | inactive: -0.0674
58 | O=c1cccc2n1C[C@@H]1CNC[C@H]2C1 [(-)-Cytisine] | inactive: 0.868
59 | CC(C)Oc1cccnc1N(C)C1CCN(Cc2ccccc2)CC1 | inactive: -0.625
60 | CCN1C[C@]2(COC)CC[C@H](OC)[C@]34C5C[C@@H]6[C@@H](OC)C[C@@]7(OCO[C@@]7(C13)[C@@H](O)C24)C5[C@H]6OC (stereo partly specified) [Delcorine] | inactive: -0.51
61 | O=[N+]([O-])O[C@H]1CO[C@H]2[C@@H]1OC[C@H]2O[N+](=O)[O-] [Isosorbide Dinitrate] | inactive: 0.974
62 | O=C(CCCN1CCC2(CC1)C(=O)NCN2c1ccccc1)c1ccc(F)cc1 [Spiperone] | inactive: -0.61
63 | CCCN(CCC)C1CCc2ccc(O)cc2C1 (racemic) [(±)-7-Hydroxy-DPAT hydrobromide] | inactive: -0.537
64 | Cc1ncsc1CCCl [Chlormethiazole HCl] | inactive: 0.143
65 | CCC1(c2ccc(N)cc2)CCC(=O)NC1=O (racemic) [(±)-p-  Aminoglutethimide] | inactive: 0.115
66 | CCOC(=O)c1cncn1[C@H](C)c1ccccc1 [Etomidate] | inactive: 1.07
